Results are given in words; binding and its absence hold for the method and conditions named. In cells and extracts the contact can be indirect. Some results given as binding are weak or reduced against the parent protein; the word gives no strength.
Target: Presenilin Enhancer 2 with N-terminal Calmodulin Binding Protein tag (CBP-PEN-2) (human) (UniProt Q9NZ42)
Test: pull-down; Calmodulin affinity resin (CBP tag on PEN-2): pooled 100 mM imidazole IMAC fractions with 2 mM CaCl2 and 2 mM MgOAc, 16 h at 4 °C, elution 10 mM EGTA in 0.5% CHAPSO Tris buffer, concentrated on a 50 kDa filter; Coomassie and immunoblot

By UniProt entry, the sequences of proteins in these tests, tags left out.
UniProt Q9NZ42: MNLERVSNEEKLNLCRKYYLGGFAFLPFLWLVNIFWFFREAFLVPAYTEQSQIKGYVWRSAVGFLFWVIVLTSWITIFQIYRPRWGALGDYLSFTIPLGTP
UniProt Q96BI3: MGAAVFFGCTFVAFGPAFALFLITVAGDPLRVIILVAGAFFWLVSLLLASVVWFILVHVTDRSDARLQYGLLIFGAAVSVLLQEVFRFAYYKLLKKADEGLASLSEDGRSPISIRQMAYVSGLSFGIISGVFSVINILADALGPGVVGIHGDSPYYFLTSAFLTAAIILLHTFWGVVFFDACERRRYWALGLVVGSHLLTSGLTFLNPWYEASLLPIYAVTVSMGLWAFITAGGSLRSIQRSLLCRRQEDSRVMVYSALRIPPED

## Anterior Pharynx Homologue 1a, long isoform (APH1aL) (from UniProt Q96BI3 1-265)
  binding: binds

— publication PMC6110731
